The exact form of at least one protein or probe is not confirmed. Protein sequences can lack the tags named with them.
Columns and labels:
Assay in all cases: activity assay
[1] = test system: T1, MG153-10; conditions: primer extension gel; 3 mM MgCl2, 37 C; protein translated in vitro; protein details: N-terminal Strep; label: 5'-FAM primer; DNA:RNA hybrid
T1 sequence (limits assumed): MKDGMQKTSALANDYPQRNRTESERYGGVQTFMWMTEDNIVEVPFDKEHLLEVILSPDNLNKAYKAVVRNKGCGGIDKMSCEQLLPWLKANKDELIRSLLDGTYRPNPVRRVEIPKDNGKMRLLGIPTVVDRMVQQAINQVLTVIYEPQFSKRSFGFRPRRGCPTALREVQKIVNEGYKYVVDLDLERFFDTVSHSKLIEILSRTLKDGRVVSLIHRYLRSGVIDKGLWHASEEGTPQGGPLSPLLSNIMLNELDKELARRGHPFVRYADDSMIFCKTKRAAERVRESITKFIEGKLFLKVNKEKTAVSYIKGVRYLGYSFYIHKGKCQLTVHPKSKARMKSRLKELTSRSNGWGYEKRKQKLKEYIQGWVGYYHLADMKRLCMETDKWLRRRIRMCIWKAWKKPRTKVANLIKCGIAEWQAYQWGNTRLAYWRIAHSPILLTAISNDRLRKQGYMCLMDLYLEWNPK

[2] = test system: T2, MG153-33; conditions: primer extension gel; 3 mM MgCl2, 37 C; protein translated in vitro; protein details: N-terminal Strep; label: 5'-FAM primer; DNA:RNA hybrid
T2 sequence (limits assumed): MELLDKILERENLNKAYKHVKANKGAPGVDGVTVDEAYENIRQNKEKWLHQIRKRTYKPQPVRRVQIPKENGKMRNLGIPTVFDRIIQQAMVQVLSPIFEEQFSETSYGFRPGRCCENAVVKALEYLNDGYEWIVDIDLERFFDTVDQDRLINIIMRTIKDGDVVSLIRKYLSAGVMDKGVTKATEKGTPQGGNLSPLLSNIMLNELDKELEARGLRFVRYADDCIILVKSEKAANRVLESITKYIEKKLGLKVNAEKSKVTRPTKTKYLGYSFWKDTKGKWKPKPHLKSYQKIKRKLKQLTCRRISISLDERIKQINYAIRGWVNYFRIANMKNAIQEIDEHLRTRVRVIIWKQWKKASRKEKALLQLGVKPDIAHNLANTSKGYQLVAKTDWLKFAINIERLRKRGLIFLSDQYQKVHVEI

[3] = test system: T3, MG151-92; conditions: primer extension gel; protein translated in vitro; protein details: Strep, RT-RNase H trim; label: 5'-FAM primer; DNA:RNA hybrid
T3 sequence: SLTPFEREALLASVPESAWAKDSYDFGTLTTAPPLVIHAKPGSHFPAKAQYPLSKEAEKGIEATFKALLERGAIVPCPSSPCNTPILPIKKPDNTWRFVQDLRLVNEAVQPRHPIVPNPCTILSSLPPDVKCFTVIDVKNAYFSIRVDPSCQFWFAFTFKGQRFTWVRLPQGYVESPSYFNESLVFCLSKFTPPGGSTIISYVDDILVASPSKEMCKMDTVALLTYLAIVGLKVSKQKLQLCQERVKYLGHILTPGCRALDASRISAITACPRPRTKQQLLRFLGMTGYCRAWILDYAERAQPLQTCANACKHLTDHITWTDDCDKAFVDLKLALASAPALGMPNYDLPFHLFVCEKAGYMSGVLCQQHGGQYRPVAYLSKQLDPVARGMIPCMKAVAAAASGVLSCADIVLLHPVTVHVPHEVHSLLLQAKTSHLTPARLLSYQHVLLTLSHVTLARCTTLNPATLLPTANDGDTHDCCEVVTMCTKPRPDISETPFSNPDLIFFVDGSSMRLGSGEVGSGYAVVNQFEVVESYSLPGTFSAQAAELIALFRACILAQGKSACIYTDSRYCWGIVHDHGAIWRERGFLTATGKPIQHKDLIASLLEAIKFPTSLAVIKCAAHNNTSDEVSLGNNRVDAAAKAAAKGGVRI

[4] = test system: T4, MG153-51; conditions: primer extension gel; 3 mM MgCl2, 37 C; protein translated in vitro; protein details: N-terminal Strep; label: 5'-FAM primer; DNA:RNA hybrid
T4 sequence (limits assumed): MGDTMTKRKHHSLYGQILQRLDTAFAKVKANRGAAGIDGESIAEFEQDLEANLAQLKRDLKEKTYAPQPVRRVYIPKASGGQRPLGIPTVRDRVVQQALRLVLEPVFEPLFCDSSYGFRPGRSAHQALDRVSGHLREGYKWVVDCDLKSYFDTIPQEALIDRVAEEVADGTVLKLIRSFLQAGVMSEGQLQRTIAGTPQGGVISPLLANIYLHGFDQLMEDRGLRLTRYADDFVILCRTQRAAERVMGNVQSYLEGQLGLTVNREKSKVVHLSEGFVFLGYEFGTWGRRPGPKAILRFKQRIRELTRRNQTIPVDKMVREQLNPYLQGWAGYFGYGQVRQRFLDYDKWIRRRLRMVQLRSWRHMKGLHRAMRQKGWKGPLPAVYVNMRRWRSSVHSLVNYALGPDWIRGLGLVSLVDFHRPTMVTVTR

[5] = test system: T5, MG173-8; conditions: primer extension on general RNA; protein translated in vitro; protein details: N-terminal Strep; label: 5'-FAM primer; DNA:RNA hybrid
T5 sequence (limits assumed): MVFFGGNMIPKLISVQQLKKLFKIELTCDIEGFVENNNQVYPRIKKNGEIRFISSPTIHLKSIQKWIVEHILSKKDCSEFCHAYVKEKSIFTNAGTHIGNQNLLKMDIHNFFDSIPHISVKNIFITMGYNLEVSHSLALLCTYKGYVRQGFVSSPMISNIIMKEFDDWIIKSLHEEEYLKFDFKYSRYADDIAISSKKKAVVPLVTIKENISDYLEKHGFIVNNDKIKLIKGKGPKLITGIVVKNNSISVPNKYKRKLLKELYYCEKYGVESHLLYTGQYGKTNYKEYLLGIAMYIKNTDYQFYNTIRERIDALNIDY

[6] = test system: T6, MG160-2; conditions: primer extension gel and qPCR; protein translated in vitro; protein details: N-terminal Strep; label: 5'-FAM primer; DNA:RNA hybrid
T6 sequence: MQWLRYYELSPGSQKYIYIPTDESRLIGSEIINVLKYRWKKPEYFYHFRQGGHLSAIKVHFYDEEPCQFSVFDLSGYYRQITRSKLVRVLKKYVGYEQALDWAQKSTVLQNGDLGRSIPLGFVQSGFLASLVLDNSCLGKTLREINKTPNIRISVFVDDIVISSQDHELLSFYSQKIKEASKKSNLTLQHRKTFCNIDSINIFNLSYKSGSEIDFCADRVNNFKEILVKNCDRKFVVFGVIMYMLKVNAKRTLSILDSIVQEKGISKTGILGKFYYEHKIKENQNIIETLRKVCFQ

Measured: activity on this sequence

GGCAAACCGCCTCTCCCCGCGCGTTGGCCGATTCATTAATGCAGCTGGCACGACAGGTTTCCCGACTGGAAAGGAGACCCGGGCAGTGAGCGCAACGGGTCTCCAATTTAAGCCAGCCCCGACACCCGCCAACACCCGCTGACGCGCCCTGACGGGCTTGTCTGCTCCCGGCATCCGCTTACAGACAAGCTGTGACCGTCTC / GAGACGGTCACAGCTTGTCTG [202-nt RNA template annealed to DNA primer]
active: [1] | [2] | [3] | [4] | [5] | [6]

— patent publication US20260193623
